# Only a part is listed here, and it is no random draw. For part of these data: At the low end of the ranking the order means little. This is one part of the list. For part of these data: The source does not settle which construct or isoform was used.
# The chains behind the UniProt entries cited, without tags or fusion partners. Where a name states a change or a piece, a line headed by the entry shows the natural chain unless it says otherwise.
# UniProt Q00613: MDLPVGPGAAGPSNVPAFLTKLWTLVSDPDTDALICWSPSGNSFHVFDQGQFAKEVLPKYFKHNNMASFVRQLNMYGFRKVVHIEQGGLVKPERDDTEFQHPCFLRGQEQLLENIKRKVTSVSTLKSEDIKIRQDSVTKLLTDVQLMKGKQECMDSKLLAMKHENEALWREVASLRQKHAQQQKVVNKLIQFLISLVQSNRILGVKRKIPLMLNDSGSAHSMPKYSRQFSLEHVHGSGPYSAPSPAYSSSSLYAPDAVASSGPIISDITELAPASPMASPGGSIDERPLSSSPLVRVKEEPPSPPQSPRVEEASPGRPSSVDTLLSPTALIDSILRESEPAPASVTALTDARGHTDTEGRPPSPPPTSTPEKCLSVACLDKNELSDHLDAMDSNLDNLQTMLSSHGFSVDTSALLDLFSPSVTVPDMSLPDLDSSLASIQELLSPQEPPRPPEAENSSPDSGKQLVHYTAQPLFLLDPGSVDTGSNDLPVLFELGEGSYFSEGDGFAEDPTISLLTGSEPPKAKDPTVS
# Tests used:
# [1] = target: HSF1 (UniProt Q00613); assay: DAPPL (digital affinity profiling via proximity ligation, sequencing); details: 10 mM Tris-HCl pH 7.5, 50 mM NaCl, 1 mM DTT, 4% glycerol, room temperature, 30 min; GST-TFs on glutathione beads, 16-mer random dsDNA library, 0.1% …; high values mean tight binding; double strand, one strand shown; scale: fold enrichment (6-mer frequency, TF over GST control)
# [2] = target: T1, ELF2 (UniProt Q15723); assay: as above; details: 10 mM Tris-HCl pH 7.5, 50 mM NaCl, 1 mM DTT, 4% glycerol, room temperature, 30 min; GST-TFs on glutathione beads, 16-mer random dsDNA library, 0.1% …; high values mean tight binding; double strand, one strand shown; scale: fold enrichment (6-mer frequency, TF over GST control)
# T1 sequence: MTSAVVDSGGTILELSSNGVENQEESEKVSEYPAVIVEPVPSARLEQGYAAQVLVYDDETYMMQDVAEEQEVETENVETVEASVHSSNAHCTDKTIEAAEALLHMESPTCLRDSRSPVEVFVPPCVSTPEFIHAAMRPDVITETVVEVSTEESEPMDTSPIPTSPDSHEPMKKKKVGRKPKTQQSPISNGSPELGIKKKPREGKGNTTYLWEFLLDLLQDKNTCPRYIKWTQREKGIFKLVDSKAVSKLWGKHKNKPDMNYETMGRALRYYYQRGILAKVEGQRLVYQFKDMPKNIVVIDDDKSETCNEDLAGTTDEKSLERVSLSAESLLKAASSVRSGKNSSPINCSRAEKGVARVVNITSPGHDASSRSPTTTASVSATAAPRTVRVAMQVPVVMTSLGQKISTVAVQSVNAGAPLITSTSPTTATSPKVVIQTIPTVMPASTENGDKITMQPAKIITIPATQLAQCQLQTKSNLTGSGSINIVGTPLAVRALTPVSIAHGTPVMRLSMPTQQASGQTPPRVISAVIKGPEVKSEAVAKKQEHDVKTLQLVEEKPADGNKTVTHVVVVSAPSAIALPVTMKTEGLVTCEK
Sequence,binding signal [1],binding signal [2]
AGCTGT,0.937,0.922
CCCTGC,0.943,1.11
ACTTCG,1.65,1.33
CCCACC,0.868,1.09
ACGCGC,0.944,0.987
CATTCA,0.967,1.01

# Reference: publication PMC7862700
